Test results taken from the supplement of paper PMC11438910.
The list shows a part of the results. Only a few entries rise above the background.

Tests used:
Experiment in all cases: fluorescence intensity of antibody binding to polysaccharide-coupled beads; higher = stronger binding
[1] = target: pneumococcal polysaccharide Pn38
[2] = target: pneumococcal polysaccharide Pn39
[3] = target: pneumococcal polysaccharide Pn4
[4] = target: pneumococcal polysaccharide Pn40
[5] = target: pneumococcal polysaccharide Pn41A
[6] = target: pneumococcal polysaccharide Pn41F
[7] = target: pneumococcal polysaccharide Pn42
[8] = target: pneumococcal polysaccharide Pn43
[9] = target: pneumococcal polysaccharide Pn44
[10] = target: pneumococcal polysaccharide Pn45
[11] = target: pneumococcal polysaccharide Pn46
[12] = target: pneumococcal polysaccharide Pn47A
[13] = target: pneumococcal polysaccharide Pn47F
[14] = target: pneumococcal polysaccharide Pn48
[15] = target: pneumococcal polysaccharide Pn5
[16] = target: pneumococcal polysaccharide Pn6A
[17] = target: pneumococcal polysaccharide Pn6B
[18] = target: pneumococcal polysaccharide Pn6C
[19] = target: pneumococcal polysaccharide Pn6D
[20] = target: pneumococcal polysaccharide Pn7A
[21] = target: pneumococcal polysaccharide Pn7B
[22] = target: pneumococcal polysaccharide Pn7C
[23] = target: pneumococcal polysaccharide Pn7F
[24] = antibody concentration 81.7561 ng/mL
[25] = antibody concentration 437.17 ng/mL
[26] = antibody concentration 2337.65 ng/mL
[27] = antibody concentration 12500 ng/mL
[28] = antibody concentration 0.1 ng/mL
[29] = antibody concentration 0.534724 ng/mL
[30] = antibody concentration 2.8593 ng/mL
[31] = antibody concentration 15.2894 ng/mL

B1: 4-80.3 (protein)
chain 1: QVQLQESGPGLVKPSETLSLTCAVSGGSFSSYWWSWIRQPPGKGLEWIGEINGNSGSTNYNPSLKSRVTISKDASKNQFSLKLSSVTAADTAVYYCARYKNVWGRGVLVTVSS
chain 2: DVVMTQSPLSLPITPGQPASISCRSSQSLVHSNGNTYLSWYQQKPGQPPRRLIYQVSNRDSGVPDRFSGSGAGTDFTLKISRVEAEDVGVYYCGQGTNVPTFGQGTKVEIK
fluorescence intensity [1, 24]: 26 MFI | fluorescence intensity [1, 25]: 29 MFI | fluorescence intensity [1, 26]: 33.2 MFI | fluorescence intensity [1, 27]: 75.5 MFI | fluorescence intensity [2, 28]: 19 MFI | fluorescence intensity [2, 29]: 18.8 MFI | fluorescence intensity [2, 30]: 17.2 MFI | fluorescence intensity [2, 31]: 16.5 MFI | fluorescence intensity [2, 24]: 18 MFI | fluorescence intensity [2, 25]: 17.5 MFI | fluorescence intensity [2, 26]: 38 MFI | fluorescence intensity [2, 27]: 216 MFI | fluorescence intensity [3, 28]: 17.5 MFI | fluorescence intensity [3, 29]: 18 MFI | fluorescence intensity [3, 30]: 18 MFI | fluorescence intensity [3, 31]: 18.5 MFI | fluorescence intensity [3, 24]: 20 MFI | fluorescence intensity [3, 25]: 24.5 MFI | fluorescence intensity [3, 26]: 37.2 MFI | fluorescence intensity [3, 27]: 108 MFI | fluorescence intensity [4, 28]: 16.5 MFI | fluorescence intensity [4, 29]: 15 MFI | fluorescence intensity [4, 30]: 17 MFI | fluorescence intensity [4, 31]: 16.8 MFI | fluorescence intensity [4, 24]: 17.5 MFI | fluorescence intensity [4, 25]: 28.5 MFI | fluorescence intensity [4, 26]: 96.5 MFI | fluorescence intensity [4, 27]: 617 MFI | fluorescence intensity [5, 28]: 23.2 MFI | fluorescence intensity [5, 29]: 23.5 MFI | fluorescence intensity [5, 30]: 23 MFI | fluorescence intensity [5, 31]: 23 MFI | fluorescence intensity [5, 24]: 25.5 MFI | fluorescence intensity [5, 25]: 27 MFI | fluorescence intensity [5, 26]: 29.5 MFI | fluorescence intensity [5, 27]: 47.2 MFI | fluorescence intensity [6, 28]: 11.5 MFI | fluorescence intensity [6, 29]: 13.5 MFI | fluorescence intensity [6, 30]: 13 MFI | fluorescence intensity [6, 31]: 12.5 MFI | fluorescence intensity [6, 24]: 12 MFI | fluorescence intensity [6, 25]: 14.2 MFI | fluorescence intensity [6, 26]: 20.8 MFI | fluorescence intensity [6, 27]: 61 MFI | fluorescence intensity [7, 28]: 11.5 MFI | fluorescence intensity [7, 29]: 12 MFI | fluorescence intensity [7, 30]: 12 MFI | fluorescence intensity [7, 31]: 12.5 MFI | fluorescence intensity [7, 24]: 13.5 MFI | fluorescence intensity [7, 25]: 17 MFI | fluorescence intensity [7, 26]: 38 MFI | fluorescence intensity [7, 27]: 217 MFI | fluorescence intensity [8, 28]: 15 MFI | fluorescence intensity [8, 29]: 14.5 MFI | fluorescence intensity [8, 30]: 16 MFI | fluorescence intensity [8, 31]: 17.2 MFI | fluorescence intensity [8, 24]: 16.5 MFI | fluorescence intensity [8, 25]: 32.5 MFI | fluorescence intensity [8, 26]: 160 MFI | fluorescence intensity [8, 27]: 1050 MFI | fluorescence intensity [9, 28]: 24.5 MFI | fluorescence intensity [9, 29]: 26 MFI | fluorescence intensity [9, 30]: 24.5 MFI | fluorescence intensity [9, 31]: 25.5 MFI | fluorescence intensity [9, 24]: 26.2 MFI | fluorescence intensity [9, 25]: 27.5 MFI | fluorescence intensity [9, 26]: 33.5 MFI | fluorescence intensity [9, 27]: 64.8 MFI | fluorescence intensity [10, 28]: 11 MFI | fluorescence intensity [10, 29]: 10 MFI | fluorescence intensity [10, 30]: 10.8 MFI | fluorescence intensity [10, 31]: 9.75 MFI | fluorescence intensity [10, 24]: 10.5 MFI | fluorescence intensity [10, 25]: 12.2 MFI | fluorescence intensity [10, 26]: 16.5 MFI | fluorescence intensity [10, 27]: 37 MFI | fluorescence intensity [11, 28]: 22 MFI | fluorescence intensity [11, 29]: 24.8 MFI | fluorescence intensity [11, 30]: 24 MFI | fluorescence intensity [11, 31]: 25 MFI | fluorescence intensity [11, 24]: 26 MFI | fluorescence intensity [11, 25]: 31 MFI | fluorescence intensity [11, 26]: 71.8 MFI | fluorescence intensity [11, 27]: 372 MFI | fluorescence intensity [12, 28]: 16.5 MFI | fluorescence intensity [12, 29]: 16.5 MFI | fluorescence intensity [12, 30]: 14.2 MFI | fluorescence intensity [12, 31]: 15.5 MFI | fluorescence intensity [12, 24]: 15.5 MFI | fluorescence intensity [12, 25]: 17.2 MFI | fluorescence intensity [12, 26]: 27.5 MFI | fluorescence intensity [12, 27]: 89.5 MFI | fluorescence intensity [13, 28]: 10.5 MFI | fluorescence intensity [13, 29]: 11 MFI | fluorescence intensity [13, 30]: 12 MFI | fluorescence intensity [13, 31]: 12.5 MFI | fluorescence intensity [13, 24]: 13 MFI | fluorescence intensity [13, 25]: 19 MFI | fluorescence intensity [13, 26]: 67 MFI | fluorescence intensity [13, 27]: 371 MFI | fluorescence intensity [14, 28]: 22.2 MFI | fluorescence intensity [14, 29]: 22.5 MFI | fluorescence intensity [14, 30]: 20.5 MFI | fluorescence intensity [14, 31]: 22 MFI | fluorescence intensity [14, 24]: 25 MFI | fluorescence intensity [14, 25]: 31.2 MFI | fluorescence intensity [14, 26]: 50 MFI | fluorescence intensity [14, 27]: 152 MFI | fluorescence intensity [15, 28]: 8.5 MFI | fluorescence intensity [15, 29]: 9 MFI | fluorescence intensity [15, 30]: 9.5 MFI | fluorescence intensity [15, 31]: 9.5 MFI | fluorescence intensity [15, 24]: 9.75 MFI | fluorescence intensity [15, 25]: 17 MFI | fluorescence intensity [15, 26]: 63.5 MFI | fluorescence intensity [15, 27]: 402 MFI | fluorescence intensity [16, 28]: 21.2 MFI | fluorescence intensity [16, 29]: 22.5 MFI | fluorescence intensity [16, 30]: 22.5 MFI | fluorescence intensity [16, 31]: 22 MFI | fluorescence intensity [16, 24]: 24 MFI | fluorescence intensity [16, 25]: 26.5 MFI | fluorescence intensity [16, 26]: 35.5 MFI | fluorescence intensity [16, 27]: 86.8 MFI | fluorescence intensity [17, 28]: 20.5 MFI | fluorescence intensity [17, 29]: 18.8 MFI | fluorescence intensity [17, 30]: 21 MFI | fluorescence intensity [17, 31]: 22 MFI | fluorescence intensity [17, 24]: 19 MFI | fluorescence intensity [17, 25]: 24.5 MFI | fluorescence intensity [17, 26]: 32.2 MFI | fluorescence intensity [17, 27]: 74.5 MFI | fluorescence intensity [18, 28]: 19.5 MFI | fluorescence intensity [18, 29]: 18 MFI | fluorescence intensity [18, 30]: 18 MFI | fluorescence intensity [18, 31]: 17.5 MFI | fluorescence intensity [18, 24]: 17.5 MFI | fluorescence intensity [18, 25]: 21.8 MFI | fluorescence intensity [18, 26]: 42.2 MFI | fluorescence intensity [18, 27]: 82 MFI | fluorescence intensity [19, 28]: 15.5 MFI | fluorescence intensity [19, 29]: 19.2 MFI | fluorescence intensity [19, 30]: 19.8 MFI | fluorescence intensity [19, 31]: 17.5 MFI | fluorescence intensity [19, 24]: 16.5 MFI | fluorescence intensity [19, 25]: 20.8 MFI | fluorescence intensity [19, 26]: 24 MFI | fluorescence intensity [19, 27]: 40.8 MFI | fluorescence intensity [20, 28]: 19.5 MFI | fluorescence intensity [20, 29]: 19.8 MFI | fluorescence intensity [20, 30]: 19.5 MFI | fluorescence intensity [20, 31]: 20.5 MFI | fluorescence intensity [20, 24]: 20.2 MFI | fluorescence intensity [20, 25]: 28.5 MFI | fluorescence intensity [20, 26]: 145 MFI | fluorescence intensity [20, 27]: 1140 MFI | fluorescence intensity [21, 28]: 17.8 MFI | fluorescence intensity [21, 29]: 17.8 MFI | fluorescence intensity [21, 30]: 17.2 MFI | fluorescence intensity [21, 31]: 16 MFI | fluorescence intensity [21, 24]: 17 MFI | fluorescence intensity [21, 25]: 19.5 MFI | fluorescence intensity [21, 26]: 31.5 MFI | fluorescence intensity [21, 27]: 130 MFI | fluorescence intensity [22, 28]: 18.2 MFI | fluorescence intensity [22, 29]: 15.5 MFI | fluorescence intensity [22, 30]: 16.2 MFI | fluorescence intensity [22, 31]: 15 MFI | fluorescence intensity [22, 24]: 14.5 MFI | fluorescence intensity [22, 25]: 17.2 MFI | fluorescence intensity [22, 26]: 26.2 MFI | fluorescence intensity [22, 27]: 120 MFI | fluorescence intensity [23, 28]: 14 MFI | fluorescence intensity [23, 29]: 14 MFI | fluorescence intensity [23, 30]: 14 MFI | fluorescence intensity [23, 31]: 16 MFI | fluorescence intensity [23, 24]: 17.5 MFI | fluorescence intensity [23, 25]: 32 MFI | fluorescence intensity [23, 26]: 133 MFI | fluorescence intensity [23, 27]: 870 MFI
